Source: the supplement of paper PMC7661543
Differences between knockout arms are mostly noise.

System: HCC-38
Test: relative cell number vs DMSO control (72 h) (% of DMSO); higher = less growth inhibition (more cells)
Description: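 QMAP-Seq: a pool of 5 breast cancer cell lines (ZR-75-1, SKBR3, HCC-38, MDA-MB-231, BT-20), each carrying 12 doxycycline-inducible Cas9 sgRNA perturbations (11 knockouts plus non-targeting sgNT), was treated with compounds for 72 h at four 10-fold doses (10 nM-10 uM or 1 nM-1 uM range). Barcodes were amplified and sequenced, and cell number was interpolated from 293T spike-in standard curves. The result is expressed as % of the median of DMSO wells. Two biological replicates.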

CCOc1ccccc1-n1c(C(C)N2CCN(C(=O)COc3ccc(Cl)cc3)CC2)nc2ccccc2c1=O (configuration not stated) [Erastin]
Settings | relative cell number
sgRNA knockout: sgATF3, 10 nM | 93.8
sgRNA knockout: sgATF3, 100 nM | 101.9
sgRNA knockout: sgATF3, 1000 nM | 101
sgRNA knockout: sgATF3, 10000 nM | 66.9
sgRNA knockout: sgATF4, 10 nM | 87.97
sgRNA knockout: sgATF4, 100 nM | 101
sgRNA knockout: sgATF4, 1000 nM | 88.2
sgRNA knockout: sgATF4, 10000 nM | 37.1
sgRNA knockout: sgATF6, 10 nM | 95.8
sgRNA knockout: sgATF6, 100 nM | 113
sgRNA knockout: sgATF6, 1000 nM | 106
sgRNA knockout: sgATF6, 10000 nM | 61.9
sgRNA knockout: sgATG7, 10 nM | 93.2
sgRNA knockout: sgATG7, 100 nM | 100
sgRNA knockout: sgATG7, 1000 nM | 95.6
sgRNA knockout: sgATG7, 10000 nM | 69.1
sgRNA knockout: sgERN1, 10 nM | 83.6
sgRNA knockout: sgERN1, 100 nM | 113
sgRNA knockout: sgERN1, 1000 nM | 96.7
sgRNA knockout: sgERN1, 10000 nM | 58.4
sgRNA knockout: sgHSF1, 10 nM | 97
sgRNA knockout: sgHSF1, 100 nM | 94.6
sgRNA knockout: sgHSF1, 1000 nM | 105
sgRNA knockout: sgHSF1, 10000 nM | 69.5
sgRNA knockout: sgHSF2, 10 nM | 103
sgRNA knockout: sgHSF2, 100 nM | 106
sgRNA knockout: sgHSF2, 1000 nM | 100
sgRNA knockout: sgHSF2, 10000 nM | 64.8
sgRNA knockout: sgKEAP1, 10 nM | 115
sgRNA knockout: sgKEAP1, 100 nM | 93.3
sgRNA knockout: sgKEAP1, 1000 nM | 101
sgRNA knockout: sgKEAP1, 10000 nM | 95
sgRNA knockout: sgNFE2L2, 10 nM | 85.4
sgRNA knockout: sgNFE2L2, 100 nM | 91.7
sgRNA knockout: sgNFE2L2, 1000 nM | 92.4
sgRNA knockout: sgNFE2L2, 10000 nM | 57
sgRNA knockout: sgSLC35F2, 10 nM | 96.207
sgRNA knockout: sgSLC35F2, 100 nM | 99.3
sgRNA knockout: sgSLC35F2, 1000 nM | 92.8
sgRNA knockout: sgSLC35F2, 10000 nM | 56.8
sgRNA knockout: sgXBP1, 10 nM | 84.5
sgRNA knockout: sgXBP1, 100 nM | 111
sgRNA knockout: sgXBP1, 1000 nM | 94
sgRNA knockout: sgXBP1, 10000 nM | 63.6

O=C(Cc1ccc(-c2ccc(OCCN3CCOCC3)cc2)cn1)NCc1ccccc1 [KX2391]
Settings | relative cell number
sgRNA knockout: sgATF3, 10 nM | 144
sgRNA knockout: sgATF3, 100 nM | 24.7
sgRNA knockout: sgATF3, 1000 nM | 24.5
sgRNA knockout: sgATF3, 10000 nM | 30.57
sgRNA knockout: sgATF4, 10 nM | 142
sgRNA knockout: sgATF4, 100 nM | 20.7
sgRNA knockout: sgATF4, 1000 nM | 21.9
sgRNA knockout: sgATF4, 10000 nM | 26.4
sgRNA knockout: sgATF6, 10 nM | 129
sgRNA knockout: sgATF6, 100 nM | 27.8
sgRNA knockout: sgATF6, 1000 nM | 34.6
sgRNA knockout: sgATF6, 10000 nM | 26
sgRNA knockout: sgATG7, 10 nM | 133
sgRNA knockout: sgATG7, 100 nM | 25.4
sgRNA knockout: sgATG7, 1000 nM | 28.2
sgRNA knockout: sgATG7, 10000 nM | 33.4
sgRNA knockout: sgERN1, 10 nM | 143
sgRNA knockout: sgERN1, 100 nM | 25.3
sgRNA knockout: sgERN1, 1000 nM | 28.2
sgRNA knockout: sgERN1, 10000 nM | 29.2
sgRNA knockout: sgHSF1, 10 nM | 137
sgRNA knockout: sgHSF1, 100 nM | 28
sgRNA knockout: sgHSF1, 1000 nM | 30.6
sgRNA knockout: sgHSF1, 10000 nM | 31.2
sgRNA knockout: sgHSF2, 10 nM | 151
sgRNA knockout: sgHSF2, 100 nM | 28.2
sgRNA knockout: sgHSF2, 1000 nM | 24.4
sgRNA knockout: sgHSF2, 10000 nM | 32.2
sgRNA knockout: sgKEAP1, 10 nM | 132
sgRNA knockout: sgKEAP1, 100 nM | 31.4
sgRNA knockout: sgKEAP1, 1000 nM | 26.1
sgRNA knockout: sgKEAP1, 10000 nM | 33.96
sgRNA knockout: sgNFE2L2, 10 nM | 143
sgRNA knockout: sgNFE2L2, 100 nM | 22.6
sgRNA knockout: sgNFE2L2, 1000 nM | 23.36
sgRNA knockout: sgNFE2L2, 10000 nM | 27.3
sgRNA knockout: sgSLC35F2, 10 nM | 147
sgRNA knockout: sgSLC35F2, 100 nM | 26.4
sgRNA knockout: sgSLC35F2, 1000 nM | 29.1
sgRNA knockout: sgSLC35F2, 10000 nM | 31.2
sgRNA knockout: sgXBP1, 10 nM | 141
sgRNA knockout: sgXBP1, 100 nM | 22.8
sgRNA knockout: sgXBP1, 1000 nM | 24.7
sgRNA knockout: sgXBP1, 10000 nM | 34.3

C=C1C[C@@H]2[C@H](CC[C@]3(C)C(=O)CC[C@@H]23)[C@@]2(C)C=CC(=O)C=C12 [Exemestane]
Settings | relative cell number
sgRNA knockout: sgATF3, 10 nM | 91.7
sgRNA knockout: sgATF3, 100 nM | 94.2
sgRNA knockout: sgATF3, 1000 nM | 103
sgRNA knockout: sgATF3, 10000 nM | 112
sgRNA knockout: sgATF4, 10 nM | 106
sgRNA knockout: sgATF4, 100 nM | 84.9
sgRNA knockout: sgATF4, 1000 nM | 107
sgRNA knockout: sgATF4, 10000 nM | 108
sgRNA knockout: sgATF6, 10 nM | 116
sgRNA knockout: sgATF6, 100 nM | 98.8
sgRNA knockout: sgATF6, 1000 nM | 116.6
sgRNA knockout: sgATF6, 10000 nM | 112
sgRNA knockout: sgATG7, 10 nM | 103
sgRNA knockout: sgATG7, 100 nM | 87.6
sgRNA knockout: sgATG7, 1000 nM | 112
sgRNA knockout: sgATG7, 10000 nM | 114
sgRNA knockout: sgERN1, 10 nM | 109
sgRNA knockout: sgERN1, 100 nM | 94
sgRNA knockout: sgERN1, 1000 nM | 119
sgRNA knockout: sgERN1, 10000 nM | 116
sgRNA knockout: sgHSF1, 10 nM | 110
sgRNA knockout: sgHSF1, 100 nM | 87.6
sgRNA knockout: sgHSF1, 1000 nM | 132
sgRNA knockout: sgHSF1, 10000 nM | 115
sgRNA knockout: sgHSF2, 10 nM | 111
sgRNA knockout: sgHSF2, 100 nM | 104
sgRNA knockout: sgHSF2, 1000 nM | 120
sgRNA knockout: sgHSF2, 10000 nM | 127
sgRNA knockout: sgKEAP1, 10 nM | 118
sgRNA knockout: sgKEAP1, 100 nM | 88.3
sgRNA knockout: sgKEAP1, 1000 nM | 116
sgRNA knockout: sgKEAP1, 10000 nM | 116
sgRNA knockout: sgNFE2L2, 10 nM | 96.6
sgRNA knockout: sgNFE2L2, 100 nM | 87.7
sgRNA knockout: sgNFE2L2, 1000 nM | 108
sgRNA knockout: sgNFE2L2, 10000 nM | 102
sgRNA knockout: sgSLC35F2, 10 nM | 96.9
sgRNA knockout: sgSLC35F2, 100 nM | 94.3
sgRNA knockout: sgSLC35F2, 1000 nM | 116
sgRNA knockout: sgSLC35F2, 10000 nM | 113
sgRNA knockout: sgXBP1, 10 nM | 105
sgRNA knockout: sgXBP1, 100 nM | 89
sgRNA knockout: sgXBP1, 1000 nM | 119
sgRNA knockout: sgXBP1, 10000 nM | 104
